Results published in patent publication US11813267B2, “DNA-PK inhibitors” (Vertex Pharmaceuticals Incorporated, priority 2013, dated 2023).
Some results were stated once for a whole list of compounds, not compound by compound.

By UniProt entry, the sequences of proteins in these tests, tags left out.
UniProt P78527, whole entry: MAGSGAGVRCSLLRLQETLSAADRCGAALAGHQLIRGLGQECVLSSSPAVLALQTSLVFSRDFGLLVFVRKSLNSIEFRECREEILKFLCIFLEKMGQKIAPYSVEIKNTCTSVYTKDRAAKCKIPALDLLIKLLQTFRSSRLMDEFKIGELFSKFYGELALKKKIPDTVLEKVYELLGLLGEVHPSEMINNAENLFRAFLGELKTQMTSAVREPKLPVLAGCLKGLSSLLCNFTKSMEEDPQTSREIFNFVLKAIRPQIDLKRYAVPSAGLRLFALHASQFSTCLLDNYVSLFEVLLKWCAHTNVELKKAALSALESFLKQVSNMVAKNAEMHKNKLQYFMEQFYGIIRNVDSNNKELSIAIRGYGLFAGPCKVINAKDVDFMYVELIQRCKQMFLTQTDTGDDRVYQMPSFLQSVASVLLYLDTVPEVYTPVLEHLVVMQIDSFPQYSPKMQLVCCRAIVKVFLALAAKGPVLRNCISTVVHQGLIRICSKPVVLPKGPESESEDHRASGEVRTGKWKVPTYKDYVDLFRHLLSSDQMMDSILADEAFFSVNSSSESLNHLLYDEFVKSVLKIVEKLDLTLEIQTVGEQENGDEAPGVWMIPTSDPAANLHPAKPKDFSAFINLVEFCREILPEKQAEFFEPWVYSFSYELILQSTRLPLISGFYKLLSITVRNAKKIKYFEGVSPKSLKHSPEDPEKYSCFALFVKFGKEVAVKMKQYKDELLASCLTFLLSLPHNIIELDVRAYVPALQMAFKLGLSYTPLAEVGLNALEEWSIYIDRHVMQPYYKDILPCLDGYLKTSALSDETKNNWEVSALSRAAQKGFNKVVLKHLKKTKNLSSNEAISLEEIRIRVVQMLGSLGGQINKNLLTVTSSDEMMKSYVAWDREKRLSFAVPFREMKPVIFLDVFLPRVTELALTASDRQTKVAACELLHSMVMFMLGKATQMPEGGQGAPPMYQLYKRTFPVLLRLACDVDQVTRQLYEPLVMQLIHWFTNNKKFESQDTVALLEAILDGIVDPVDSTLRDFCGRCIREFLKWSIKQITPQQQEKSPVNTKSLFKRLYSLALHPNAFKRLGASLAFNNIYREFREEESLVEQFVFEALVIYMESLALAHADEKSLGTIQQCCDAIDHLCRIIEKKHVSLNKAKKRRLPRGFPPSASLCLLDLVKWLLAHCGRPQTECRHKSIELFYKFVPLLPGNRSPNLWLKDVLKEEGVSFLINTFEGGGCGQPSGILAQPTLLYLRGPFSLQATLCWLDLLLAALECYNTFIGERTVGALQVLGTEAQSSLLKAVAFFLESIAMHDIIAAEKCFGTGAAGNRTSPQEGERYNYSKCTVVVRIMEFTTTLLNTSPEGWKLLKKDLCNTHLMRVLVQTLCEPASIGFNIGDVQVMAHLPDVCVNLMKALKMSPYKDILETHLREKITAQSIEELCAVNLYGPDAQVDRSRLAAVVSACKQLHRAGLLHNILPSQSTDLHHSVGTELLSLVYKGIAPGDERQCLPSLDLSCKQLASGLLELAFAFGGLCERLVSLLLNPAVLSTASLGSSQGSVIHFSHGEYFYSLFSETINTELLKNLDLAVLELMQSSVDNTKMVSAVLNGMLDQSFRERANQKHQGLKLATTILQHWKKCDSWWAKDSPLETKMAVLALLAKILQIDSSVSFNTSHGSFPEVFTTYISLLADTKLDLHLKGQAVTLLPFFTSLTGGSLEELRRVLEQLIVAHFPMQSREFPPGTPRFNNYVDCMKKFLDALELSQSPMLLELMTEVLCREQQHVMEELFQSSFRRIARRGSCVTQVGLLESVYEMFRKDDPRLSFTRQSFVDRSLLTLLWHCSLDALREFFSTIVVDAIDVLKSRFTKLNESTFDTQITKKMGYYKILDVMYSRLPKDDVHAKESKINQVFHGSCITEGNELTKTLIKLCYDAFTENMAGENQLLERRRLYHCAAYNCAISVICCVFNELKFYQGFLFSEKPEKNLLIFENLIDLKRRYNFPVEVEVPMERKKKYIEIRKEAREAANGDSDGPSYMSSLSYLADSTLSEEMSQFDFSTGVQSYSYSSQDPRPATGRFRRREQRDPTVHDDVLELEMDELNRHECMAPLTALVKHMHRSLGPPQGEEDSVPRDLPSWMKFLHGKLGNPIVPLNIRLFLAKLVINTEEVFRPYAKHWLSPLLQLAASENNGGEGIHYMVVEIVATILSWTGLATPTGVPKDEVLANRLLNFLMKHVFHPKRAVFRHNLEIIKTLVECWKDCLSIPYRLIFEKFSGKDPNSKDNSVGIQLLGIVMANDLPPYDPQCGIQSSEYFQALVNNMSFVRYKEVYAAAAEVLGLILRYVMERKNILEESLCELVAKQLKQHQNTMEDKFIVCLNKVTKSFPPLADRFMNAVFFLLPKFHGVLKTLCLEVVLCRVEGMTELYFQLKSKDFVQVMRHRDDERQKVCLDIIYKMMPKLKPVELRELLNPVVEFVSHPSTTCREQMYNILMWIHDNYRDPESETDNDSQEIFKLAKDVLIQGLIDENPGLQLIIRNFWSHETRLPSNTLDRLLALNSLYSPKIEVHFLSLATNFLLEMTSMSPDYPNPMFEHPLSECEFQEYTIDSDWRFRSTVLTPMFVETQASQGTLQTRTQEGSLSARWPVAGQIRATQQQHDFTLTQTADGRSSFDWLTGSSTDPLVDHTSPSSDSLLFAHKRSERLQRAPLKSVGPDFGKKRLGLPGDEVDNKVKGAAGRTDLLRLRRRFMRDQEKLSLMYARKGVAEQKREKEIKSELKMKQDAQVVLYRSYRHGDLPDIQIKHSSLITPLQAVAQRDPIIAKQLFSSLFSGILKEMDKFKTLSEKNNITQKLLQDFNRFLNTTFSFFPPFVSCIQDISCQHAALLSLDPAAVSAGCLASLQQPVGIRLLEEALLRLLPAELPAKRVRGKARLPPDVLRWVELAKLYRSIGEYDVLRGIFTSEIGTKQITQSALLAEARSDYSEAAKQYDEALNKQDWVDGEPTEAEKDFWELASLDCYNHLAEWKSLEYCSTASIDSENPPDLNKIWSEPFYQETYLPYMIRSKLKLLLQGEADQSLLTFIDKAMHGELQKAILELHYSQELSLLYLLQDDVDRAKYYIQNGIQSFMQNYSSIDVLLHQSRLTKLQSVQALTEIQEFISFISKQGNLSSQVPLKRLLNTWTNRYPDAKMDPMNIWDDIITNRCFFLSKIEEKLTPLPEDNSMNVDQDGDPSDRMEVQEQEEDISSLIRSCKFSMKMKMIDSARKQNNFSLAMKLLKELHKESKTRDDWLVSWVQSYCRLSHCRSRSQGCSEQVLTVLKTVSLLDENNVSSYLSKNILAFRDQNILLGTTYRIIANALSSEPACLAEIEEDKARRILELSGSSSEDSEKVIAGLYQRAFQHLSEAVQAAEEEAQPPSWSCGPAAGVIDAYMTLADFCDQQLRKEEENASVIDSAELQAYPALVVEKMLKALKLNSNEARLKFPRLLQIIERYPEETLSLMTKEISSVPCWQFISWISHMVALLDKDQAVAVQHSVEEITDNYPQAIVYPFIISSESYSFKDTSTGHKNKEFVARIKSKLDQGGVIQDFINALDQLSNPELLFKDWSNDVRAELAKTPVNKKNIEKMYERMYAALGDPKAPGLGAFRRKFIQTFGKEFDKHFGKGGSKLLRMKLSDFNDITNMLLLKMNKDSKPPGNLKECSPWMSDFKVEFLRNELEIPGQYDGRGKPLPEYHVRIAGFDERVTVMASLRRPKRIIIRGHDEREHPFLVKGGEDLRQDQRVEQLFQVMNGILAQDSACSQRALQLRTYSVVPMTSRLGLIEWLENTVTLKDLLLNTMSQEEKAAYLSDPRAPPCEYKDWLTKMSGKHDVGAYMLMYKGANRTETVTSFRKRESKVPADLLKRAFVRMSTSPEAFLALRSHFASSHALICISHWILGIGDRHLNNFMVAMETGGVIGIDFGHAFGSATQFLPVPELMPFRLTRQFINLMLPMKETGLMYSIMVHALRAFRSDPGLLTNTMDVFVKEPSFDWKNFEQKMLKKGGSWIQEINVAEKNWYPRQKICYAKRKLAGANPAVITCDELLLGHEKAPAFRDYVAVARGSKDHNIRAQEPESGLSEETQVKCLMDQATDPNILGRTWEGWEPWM

Biological target: DNA-PK (Homo sapiens, UniProt P78527)
Assay: DNA-PK inhibition assay (standard radiometric 33P-ATP kinase assay)
Assay type: biochemical
Conditions: approx. 6 nM DNA-PK, 100 μM ATP, 45 min, competitive tight-binding fit

**Q.** With `COc1ccc(OC(=O)N[C@H]2CC[C@@H](Nc3cc(N4CCOCC4)cc4nccnc34)CC2)cc1` [Compound 15] as the compound, how does the Ki read?
**A.** Its Ki is < 1000 nM.
